Cleaved PARP in drug-treated melanoma cells

Data from the primary screen of doi:10.1371/journal.pone.0140310, rounded.

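Human melanoma cell lines in 1,536-well plates were treated with a pair of drugs for 72 h, then fixed, stained and imaged. The read-out is the fraction of cleaved-PARP-positive nuclei, in % of that fraction in the DMSO control; 200 means twice the control level of this apoptosis marker. Concentrations were fixed for each drug; these are the higher of two levels. The file gives one value for each pair and line, without errors, so small differences may be noise. The marker varies much from line to line, for technical or biological reasons.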 This is part of the screen, not chosen by result. A dash means that no value is listed here.

Drugs:
embelin: CCCCCCCCCCCC1=C(O)C(=O)C=C(O)C1=O at 6 µM
JZL184: O=C(Oc1ccc([N+](=O)[O-])cc1)N1CCC(C(O)(c2ccc3c(c2)OCO3)c2ccc3c(c2)OCO3)CC1 at 5 µM
gemcitabine: Nc1ccn([C@@H]2O[C@H](CO)[C@@H](O)C2(F)F)c(=O)n1 at 0.002 µM
temozolomide: Cn1nnc2c(C(N)=O)ncn2c1=O at 10 µM
SNS-032: CC(C)(C)c1cnc(CSc2cnc(NC(=O)C3CCNCC3)s2)o1 at 0.05 µM
T0901317: O=S(=O)(c1ccccc1)N(CC(F)(F)F)c1ccc(C(O)(C(F)(F)F)C(F)(F)F)cc1 at 7 µM
nilotinib: Cc1cn(-c2cc(NC(=O)c3ccc(C)c(Nc4nccc(-c5cccnc5)n4)c3)cc(C(F)(F)F)c2)cn1 at 1 µM
tamatinib: COc1cc(Nc2ncc(F)c(Nc3ccc4c(n3)NC(=O)C(C)(C)O4)n2)cc(OC)c1OC at 2 µM
AS-252424: O=C1NC(=O)/C(=C/c2ccc(-c3ccc(F)cc3O)o2)S1 at 5 µM
CP-690550: C[C@@H]1CCN(C(=O)CC#N)C[C@@H]1N(C)c1ncnc2[nH]ccc12 at 5 µM
nilutamide: CC1(C)NC(=O)N(c2ccc([N+](=O)[O-])c(C(F)(F)F)c2)C1=O at 5 µM
AZD7762: NC(=O)Nc1cc(-c2cccc(F)c2)sc1C(=O)N[C@H]1CCCNC1 at 0.1 µM
IMD-0354: O=C(Nc1cc(C(F)(F)F)cc(C(F)(F)F)c1)c1cc(Cl)ccc1O at 0.08 µM
ENMD-2076: Cc1cc(Nc2cc(N3CCN(C)CC3)nc(/C=C/c3ccccc3)n2)n[nH]1 at 0.2 µM

Combination,SK-MEL-30,SK-MEL-28,WM451Lu,LB2518-MEL,IST-MEL1,WM115,SK-MEL-2,COLO 800,501mel,LOX IMVI,C32,SK-MEL-5,UACC-62,WM1716,MEL-HO
gemcitabine + AZD7762,181,181,12100,509,262,2270,138,399,-,531,887,174,190,3460,652
nilutamide + AZD7762,215,195,91.6,104,44.3,270,88.2,155,-,103,324,29.3,157,83.5,76.8
CP-690550 + temozolomide,320,371,65.2,76.9,68.2,53.0,67.4,74.8,-,153,110,97.7,132,508,70.2
JZL184 + nilotinib,89.2,80.2,108,85.6,96.3,101,106,225,28.7,122,87.2,235,234,112,84.9
nilotinib + AS-252424,68.2,39.4,26.2,50.0,299,117,109,90.6,259,52.5,156,592,80.5,16.7,61.5
SNS-032 + gemcitabine,183,44.3,620,233,90.4,263,310,385,-,63.5,351,140,137,89.2,211
AS-252424 + nilutamide,80.4,212,36.2,69.2,60.1,134,128,51.8,194,58.9,85.0,52.5,115,28.4,51.8
T0901317 + nilutamide,72.7,227,40.2,32.8,29.7,86.1,177,117,127,128,101,200,158,63.3,45.6
AZD7762 + IMD-0354,294,287,235,101,291,362,140,56.8,-,70.0,296,249,127,472,85.2
AZD7762 + AS-252424,125,199,31.0,47.8,52.1,119,75.6,106,151,87.0,104,356,171,188,213
T0901317 + IMD-0354,114,89.7,140,176,56.0,80.0,67.3,165,163,142,75.0,312,140,32.2,60.6
gemcitabine + T0901317,94.8,33.9,277,68.7,267,150,85.4,622,194,376,114,102,169,32.9,183
ENMD-2076 + AZD7762,301,107,146,139,266,104,201,292,-,62.6,99.6,164,142,387,158
JZL184 + tamatinib,128,112,198,79.7,266,142,70.9,200,95.9,138,103,61.9,138,33.2,59.6
nilotinib + tamatinib,44.7,119,46.1,99.6,115,103,74.6,43.2,-,210,238,63.4,102,3470,82.9
temozolomide + embelin,232,88.1,64.4,74.1,129,57.2,117,86.6,94.1,201,84.6,111,395,286,230
nilotinib + T0901317,102,50.4,80.9,107,47.5,128,200,78.1,159,146,70.7,57.5,173,77.6,201
AS-252424 + CP-690550,119,111,243,67.4,133,126,86.8,47.5,75.2,141,81.4,86.9,47.0,80.2,30.9
SNS-032 + embelin,94.4,186,94.8,86.0,44.9,509,347,119,60.4,132,114,47.2,351,100,31.5
SNS-032 + tamatinib,37.8,56.7,72.3,351,90.2,240,247,205,-,203,207,83.9,135,169,160
temozolomide + IMD-0354,141,507,242,124,146,113,116,37.5,-,134,127,60.3,197,390,89.2
temozolomide + gemcitabine,251,304,424,333,197,31.0,37.8,449,-,154,230,69.1,317,482,100
ENMD-2076 + IMD-0354,84.0,283,87.9,102,459,252,130,168,-,154,86.9,140,88.7,71.2,30.8
JZL184 + AS-252424,159,54.5,99.4,243,26.0,85.4,72.0,94.3,90.5,121,83.2,78.5,47.1,62.5,53.9
ENMD-2076 + tamatinib,43.8,170,169,150,308,113,60.0,377,-,566,430,153,154,54.9,84.9
ENMD-2076 + JZL184,108,87.5,78.2,75.0,68.7,338,135,309,36.0,97.0,99.3,143,168,187,41.6
gemcitabine + AS-252424,80.8,65.3,703,395,297,198,95.8,457,89.5,107,83.3,204,113,285,135
embelin + nilotinib,77.3,79.0,28.8,66.7,316,55.3,207,105,166,77.0,70.2,106,84.2,71.0,138
SNS-032 + T0901317,98.2,141,170,-,70.3,58.4,-,318,-,176,139,173,308,23.7,56.1
embelin + CP-690550,48.3,71.1,83.9,171,81.6,48.5,68.0,106,47.6,118,72.0,109,33.7,32.3,54.7
IMD-0354 + embelin,120,133,69.3,-,238,54.9,-,123,-,43.4,80.0,63.2,205,116,162
nilutamide + nilotinib,35.4,159,92.4,62.4,41.1,156,104,168,-,154,130,69.9,117,40.3,68.9

For reference, 3 entries once more:

Combination	SK-MEL-30	SK-MEL-28	WM451Lu	LB2518-MEL	IST-MEL1	WM115	SK-MEL-2	COLO 800	501mel	LOX IMVI	C32	SK-MEL-5	UACC-62	WM1716	MEL-HO
AZD7762 + AS-252424	125	199	31.0	47.8	52.1	119	75.6	106	151	87.0	104	356	171	188	213
T0901317 + nilutamide	72.7	227	40.2	32.8	29.7	86.1	177	117	127	128	101	200	158	63.3	45.6
temozolomide + IMD-0354	141	507	242	124	146	113	116	37.5	-	134	127	60.3	197	390	89.2